Test results as given in patent US6358921B1, “Antimicrobial peptide compositions and method” (priority 1996, dated 2002).

Experiments:
E. faecalis = type: cell-based, Enterococcus faecalis
Text: (§1) The following bacterial strains were utilized: Escherichia coli UB1005 (wt) and its antibiotic supersusceptible derivative DC2 (Clark, 1984); Excherichia coli SC9251 and its polymixin B rasistant mutant pmrA SC9252 (Peterson, et al., 1987) Pseudomonas aeruginosa H187 (wt) (Angus, et al., 1987) and its antibiotic-sensitive derivative H188 (Zimmerman, W, Antimicrob. Agents Chemother. 18: 94-100, 1980); methicillin sensitive Staphylococcus aureus K147 (Kreiswirth, et al., 1983); Staphylococcus aureus SAP0017, a methicillin resistant clinical isolate from Dr. A. Chow (University of British Columia); Bacillus subtilis, an environmental wt lab strain. Enterococcus faecalis are ATCC 29212 cells and Staphylococcus epidermidis was a clinical isolate from Dr. D. Speert (University of British Columbia). Antifungal activity was tested using a clinical lab isolate of Candida albicans. Salmonella typhinurium C57 and C610 (Fields, P.I., et al., Science 243: 1059-1062 (1989) Corynebacterium xerosis was an environmental isolate (University of British Columbia).
(§2) It is now apparent that agar-based assays severely underestimate antifungal activity as well as activity against gram negative microorganisms (Kondejewski, et al., 1996). Consequently, in the studies reported herein, a liquid-broth method was used to measure the antibiotic properties of the peptides. […] Briefly, cells were grown overnight at 37° C. in LB and diluted in the same medium. Serial dilutions of antibiotics were added to the microtitre plates in a volume of 100 μL followed by 10 μL of bacteria to give a final inoculum of 5×10^5 CFU/mL. Plates were incubated at 37° C. overnight and MICs determined as the lowest antibiotic concentration that inhibited growth. […]

B. subtilis = type: cell-based, Bacillus subtilis
Text: as §1, §2

S. epidermidis = type: cell-based, Staphylococcus epidermidis
Text: as §1, §2

C. xeroses = type: cell-based, Corynebacterium xerosis
Text: as §1, §2

C. Albicans = type: cell-based, Candida albicans
Text: as §1, §2

P. aeruginosa H187 = type: cell-based, Pseudomonas aeruginosa
Text: as §1
(§3) It is now apparent that agar-based assays severely underestimate antifungal activity as well as activity against gram negative microorganisms (Kondejewski, et al., 1996). Consequently, in the studies reported herein, a liquid-broth method was used to measure the antibiotic properties of the peptides. […] Briefly, cells were grown overnight at 37° C. in LB and diluted in the same medium. Serial dilutions of antibiotics were added to the microtitre plates in a volume of 100 μL followed by 10 μL of bacteria to give a final inoculum of 5×10^5 CFU/mL. Plates were incubated at 37° C. overnight and MICs determined as the lowest antibiotic concentration that inhibited growth.
(§4) The results from antimicrobial and hemolytic assays are combined to provide a “Therapeutic Index” (TI) for each peptide with respect to individual microorganisms. As reported herein, the TI is calculated as the hemolytic activity divided by the antimicrobial activity. The TI thus is a measure of specificity of the particular peptide for microbial membranes as opposed to human blood cell membranes. In the present studies, antimicrobial activities are reported as minimum inhibitory concentrations (MIC)—the lowest concentration of peptide (μg/ml) found to inhibit growth of the particular microbe. Hemolytic activity is reported as the concentration of peptide that effected complete lysis of blood cells after four hours. Thus, in the context of the present invention high TI values indicate microbial specificity and relative lack of toxicity.

S. aureus K147 = type: cell-based, Staphylococcus aureus
Text: as §1, §3, §4

S. aureus SAP0017 = type: cell-based, Staphylococcus aureus
Text: as §1, §3, §4

S. typhinurium C610 = type: cell-based, Salmonella typhinurium
Text: as §1, §2

S. typhinurium C587 = type: cell-based, Salmonella typhinurium
Text: as §1, §2

E. coli UB1005 = type: cell-based, Escherichia coli
Text: as §1, §2

E. coli DC2 = type: cell-based, Escherichia coli
Text: as §1, §3, §4

P. aeruginosa H188 = type: cell-based, Pseudomonas aeruginosa
Text: as §1, §2

CC(C)C[C@@H]1NC(=O)[C@H](CCCCN)NC(=O)[C@H](C(C)C)NC(=O)[C@H](CCCCN)NC(=O)[C@@H]2CCCN2C(=O)[C@@H](Cc2ccc(O)cc2)NC(=O)[C@H](CCCCN)NC(=O)[C@H](CC(C)C)NC(=O)[C@H](CCCCN)NC(=O)[C@H](C(C)C)NC(=O)[C@@H](CCCCN)NC(=O)[C@@H]2CCCN2C(=O)[C@@H](Cc2ccc(O)cc2)NC(=O)[C@H](CCCCN)NC1=O [GS14invK1]
Therapeutic Index = hemolytic activity/antibacterial activity (E. faecalis): <8 | Therapeutic Index = hemolytic activity/antibacterial activity (B. subtilis): <8 | Therapeutic Index = hemolytic activity/antibacterial activity (S. epidermidis): 16 | Therapeutic Index = hemolytic activity/antibacterial activity (C. xeroses): 260 | Therapeutic Index = hemolytic activity/antibacterial activity (C. Albicans): 8 | Therapeutic Index = hemolytic activity/antibacterial activity (P. aeruginosa H187): 130 | Therapeutic Index = hemolytic activity/antibacterial activity (S. aureus K147): <8 | Therapeutic Index = hemolytic activity/antibacterial activity (S. aureus SAP0017): <8 | Therapeutic Index = hemolytic activity/antibacterial activity (S. typhinurium C610): 260 | Therapeutic Index = hemolytic activity/antibacterial activity (S. typhinurium C587): 11 | Therapeutic Index = hemolytic activity/antibacterial activity (E. coli UB1005): 65 | Therapeutic Index = hemolytic activity/antibacterial activity (E. coli DC2): 65 | Therapeutic Index = hemolytic activity/antibacterial activity (P. aeruginosa H188): 180

CC(C)C[C@@H]1NC(=O)[C@H](CCCCN)NC(=O)[C@H](C(C)C)NC(=O)[C@@H]2CCCN2C(=O)[C@@H](Cc2ccc(O)cc2)NC(=O)[C@H](CCCCN)NC(=O)[C@H](CC(C)C)NC(=O)[C@H](C(C)C)NC(=O)[C@H](CCCCN)NC(=O)[C@H](CC(C)C)NC(=O)[C@@H]2CCCN2C(=O)[C@@H](Cc2ccc(O)cc2)NC(=O)[C@H](CCCCN)NC(=O)[C@H](C(C)C)NC1=O [GS14na]
Therapeutic Index = hemolytic activity/antibacterial activity (S. aureus SAP0017): 8

CC(C)C[C@@H]1NC(=O)[C@H](CCCCN)NC(=O)[C@H](C(C)C)NC(=O)[C@@H]2CCCN2C(=O)[C@@H](Cc2ccccc2)NC(=O)[C@H](CC(C)C)NC(=O)[C@H](CCCCN)NC(=O)[C@H](C(C)C)NC(=O)[C@H](CCCCN)NC(=O)[C@H](CC(C)C)NC(=O)[C@@H]2CCCN2C(=O)[C@@H](Cc2ccccc2)NC(=O)[C@H](C(C)C)NC(=O)[C@@H](CCCCN)NC1=O [Y2/F2]
Therapeutic Index = hemolytic activity/antibacterial activity (E. faecalis): 6.5 | Therapeutic Index = hemolytic activity/antibacterial activity (B. subtilis): 3.2 | Therapeutic Index = hemolytic activity/antibacterial activity (S. epidermidis): 13 | Therapeutic Index = hemolytic activity/antibacterial activity (C. xeroses): 27 | Therapeutic Index = hemolytic activity/antibacterial activity (C. Albicans): 13 | Therapeutic Index = hemolytic activity/antibacterial activity (P. aeruginosa H187): 2.4 | Therapeutic Index = hemolytic activity/antibacterial activity (S. aureus K147): 3.2 | Therapeutic Index = hemolytic activity/antibacterial activity (S. aureus SAP0017): 4.4 | Therapeutic Index = hemolytic activity/antibacterial activity (S. typhinurium C610): 13 | Therapeutic Index = hemolytic activity/antibacterial activity (S. typhinurium C587): 4.4 | Therapeutic Index = hemolytic activity/antibacterial activity (E. coli UB1005): 6.5 | Therapeutic Index = hemolytic activity/antibacterial activity (E. coli DC2): 27 | Therapeutic Index = hemolytic activity/antibacterial activity (P. aeruginosa H188): 13

CC(C)C[C@@H]1NC(=O)[C@H](CCCN)NC(=O)[C@H](C(C)C)NC(=O)[C@@H]2CCCN2C(=O)[C@@H](Cc2ccccc2)NC(=O)[C@H](CC(C)C)NC(=O)[C@H](CCCN)NC(=O)[C@H](C(C)C)NC(=O)[C@@H]2CCCN2C(=O)[C@@H](Cc2ccccc2)NC1=O [GS, cyclo(Val-Orn-Leu-D-Phe-Pro)2, reference compound] (cyclo(V[Orn]L[dF]PV[Orn]L[dF]P))
Therapeutic Index = hemolytic activity/antibacterial activity (E. faecalis): 1 | Therapeutic Index = hemolytic activity/antibacterial activity (E. faecalis; E. faecalis, Table 3): 4 | Therapeutic Index = hemolytic activity/antibacterial activity (B. subtilis): <0.01 | Therapeutic Index = hemolytic activity/antibacterial activity (B. subtilis; B. subtilis, Table 3): 4 | Therapeutic Index = hemolytic activity/antibacterial activity (S. epidermidis): 0.01 | Therapeutic Index = hemolytic activity/antibacterial activity (S. epidermidis; S. epidermidis, Table 3): 8.3 | Therapeutic Index = hemolytic activity/antibacterial activity (C. xeroses): 0.2 | Therapeutic Index = hemolytic activity/antibacterial activity (C. xeroses; C. xeroses, Table 3): 16 | Therapeutic Index = hemolytic activity/antibacterial activity (C. Albicans): 0.01 | Therapeutic Index = hemolytic activity/antibacterial activity (C. Albicans; C. Albicans, Table 3): 3.1 | Therapeutic Index = hemolytic activity/antibacterial activity (P. aeruginosa H187; P. aeruginosa H187, Table 2): 0.5 | Therapeutic Index = hemolytic activity/antibacterial activity (S. aureus K147): <0.01 | Therapeutic Index = hemolytic activity/antibacterial activity (S. aureus K147; S. aureus K147, Table 3): 8.3 | Therapeutic Index = hemolytic activity/antibacterial activity (S. aureus SAP0017): <0.01 | Therapeutic Index = hemolytic activity/antibacterial activity (S. aureus SAP0017; S. aureus SAP0017, Table 3): 8.3 | Therapeutic Index = hemolytic activity/antibacterial activity (S. typhinurium C610; S. typhinurium C610, Table 2): 1.4 | Therapeutic Index = hemolytic activity/antibacterial activity (S. typhinurium C587; S. typhinurium C587, Table 2): 0.7 | Therapeutic Index = hemolytic activity/antibacterial activity (E. coli UB1005; E. coli UB1005, Table 2): 1.4 | Therapeutic Index = hemolytic activity/antibacterial activity (E. coli DC2; E. coli DC2, Table 2): 4 | Therapeutic Index = hemolytic activity/antibacterial activity (P. aeruginosa H188; P. aeruginosa H188, Table 2): 2

CC(C)C[C@@H]1NC(=O)[C@H](CCCCN)NC(=O)[C@H](CC(C)C)NC(=O)[C@@H]2CCCN2C(=O)[C@@H](Cc2ccc(O)cc2)NC(=O)[C@H](CC(C)C)NC(=O)[C@@H](CCCCN)NC(=O)[C@H](CC(C)C)NC(=O)[C@H](CCCCN)NC(=O)[C@H](CC(C)C)NC(=O)[C@@H]2CCCN2C(=O)[C@@H](Cc2ccc(O)cc2)NC(=O)[C@H](CC(C)C)NC(=O)[C@H](CCCCN)NC1=O [V3/L3]
Therapeutic Index = hemolytic activity/antibacterial activity (E. faecalis): 17 | Therapeutic Index = hemolytic activity/antibacterial activity (B. subtilis): 2.8 | Therapeutic Index = hemolytic activity/antibacterial activity (S. epidermidis): 17 | Therapeutic Index = hemolytic activity/antibacterial activity (C. xeroses): 25 | Therapeutic Index = hemolytic activity/antibacterial activity (C. Albicans): 6.3 | Therapeutic Index = hemolytic activity/antibacterial activity (P. aeruginosa H187): 0.25 | Therapeutic Index = hemolytic activity/antibacterial activity (S. aureus K147): 1 | Therapeutic Index = hemolytic activity/antibacterial activity (S. aureus SAP0017): 2 | Therapeutic Index = hemolytic activity/antibacterial activity (S. typhinurium C610): 1.7 | Therapeutic Index = hemolytic activity/antibacterial activity (S. typhinurium C587): 0.25 | Therapeutic Index = hemolytic activity/antibacterial activity (E. coli UB1005): 4 | Therapeutic Index = hemolytic activity/antibacterial activity (E. coli DC2): 8 | Therapeutic Index = hemolytic activity/antibacterial activity (P. aeruginosa H188): 8

CC(C)C[C@@H]1NC(=O)[C@H](CCCCN)NC(=O)[C@H](C(C)C)NC(=O)[C@H](CCCCN)NC(=O)[C@@H]2CCCN2C(=O)[C@@H](Cc2ccc(O)cc2)NC(=O)[C@H](CCCCN)NC(=O)[C@H](CC(C)C)NC(=O)[C@H](CCCCN)NC(=O)[C@H](C(C)C)NC(=O)[C@H](CCCCN)NC(=O)[C@@H]2CCCN2C(=O)[C@@H](Cc2ccc(O)cc2)NC(=O)[C@H](CCCCN)NC1=O [GS14inv]
Therapeutic Index = hemolytic activity/antibacterial activity (E. faecalis): 8 | Therapeutic Index = hemolytic activity/antibacterial activity (B. subtilis): <8 | Therapeutic Index = hemolytic activity/antibacterial activity (S. epidermidis): 64 | Therapeutic Index = hemolytic activity/antibacterial activity (C. xeroses): 2000 | Increase in specificity (therapeutic index) relative to GS14 (C. xeroses; C. xeroses): 10,000 fold | Therapeutic Index = hemolytic activity/antibacterial activity (C. Albicans): 64 | Therapeutic Index = hemolytic activity/antibacterial activity (P. aeruginosa H187): 130 | Therapeutic Index = hemolytic activity/antibacterial activity (S. aureus K147): <8 | Therapeutic Index = hemolytic activity/antibacterial activity (S. aureus SAP0017): 8 | Therapeutic Index = hemolytic activity/antibacterial activity (S. typhinurium C610): 520 | Therapeutic Index = hemolytic activity/antibacterial activity (S. typhinurium C587): 32 | Therapeutic Index = hemolytic activity/antibacterial activity (E. coli UB1005): 130 | Therapeutic Index = hemolytic activity/antibacterial activity (E. coli DC2): 2000 | Increase in therapeutic index (specificity) compared to GS14 (E. coli DC2; E. coli DC2): greater than 200,000 fold | Therapeutic Index = hemolytic activity/antibacterial activity (P. aeruginosa H188): 260

Where two headings read alike, the source gives them in different places. Where a SMILES comes first, the peptide text is derived from it. [ ]: non-standard residue; d: D form. Orn = NCCC[C@H](N)C(=O)O
